Assay [1] has as its target T1, GFP-RAB13(T22N) (human) (UniProt P51153).
T1 sequence: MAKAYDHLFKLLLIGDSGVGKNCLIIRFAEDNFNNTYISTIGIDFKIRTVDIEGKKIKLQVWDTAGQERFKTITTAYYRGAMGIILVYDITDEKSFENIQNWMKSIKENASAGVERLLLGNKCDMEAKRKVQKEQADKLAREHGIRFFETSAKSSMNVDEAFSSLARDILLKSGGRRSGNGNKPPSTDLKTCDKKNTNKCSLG
Put plainly: co-IP.

Assay [2] concerns the target T2, GFP-RAB13 (wild type) (human) (UniProt P51153).
T2 sequence: T1 sequence with N22T
Put plainly: co-IP.

The target of assay [3] is T3, RAB13 (endogenous) (human (endogenous in MDA-MB-231)) (UniProt P51153).
T3 sequence: T1 sequence with N22T
Put plainly: proximity ligation.

Assay [4] deals with T1, GFP-RAB13(T22N) (human). Put plainly: proximity ligation.

In publication doi:10.1101/2020.05.19.104463 one finds binding data, which are given here for two molecules.

Changes are numbered by the printed parent chain. Results are given in words; binding and its absence hold for the method and conditions named. In cells and extracts the contact can be indirect. Some binding calls cover weakened binding; strength is not graded here. For some assays here: Tags and fused reporters may be left off the sequences shown.

B1: RABIF/MSS4 (protein, UniProt P47224 1-123)
chain: MEPAEQPSELVSAEGRNRKAVLCQRCGSRVLQPGTALFSRRQLFLPSMRKKPALSDGSNPDGDLLQEHWLVEDMFIFENVGFTKDVGNIKFLVCADCEIGPIGWHCLDDKNSFYVALERVSHE
For the molecule B1, the binding result (with GFP-RAB13(T22N) (human) [1]; in assay [2]; in assay [3]; with GFP-RAB13(T22N) (human) [4]) was “binds” in each case.

B2: Rab escort protein REP-1 (protein, UniProt P24386 1-653)
chain: MADTLPSEFDVIVIGTGLPESIIAAACSRSGRRVLHVDSRSYYGGNWASFSFSGLLSWLKEYQENSDIVSDSPVWQDQILENEEAIALSRKDKTIQHVEVFCYASQDLHEDVEEAGALQKNHALVTSANSTEAADSAFLPTEDESLSTMSCEMLTEQTPSSDPENALEVNGAEVTGEKENHCDDKTCVPSTSAEDMSENVPIAEDTTEQPKKNRITYSQIIKEGRRFNIDLVSKLLYSRGLLIDLLIKSNVSRYAEFKNITRILAFREGRVEQVPCSRADVFNSKQLTMVEKRMLMKFLTFCMEYEKYPDEYKGYEEITFYEYLKTQKLTPNLQYIVMHSIAMTSETASSTIDGLKATKNFLHCLGRYGNTPFLFPLYGQGELPQCFCRMCAVFGGIYCLRHSVQCLVVDKESRKCKAIIDQFGQRIISEHFLVEDSYFPENMCSRVQYRQISRAVLITDRSVLKTDSDQQISILTVPAEEPGTFAVRVIELCSSTMTCMKGTYLVHLTCTSSKTAREDLESVVQKLFVPYTEMEIENEQVEKPRILWALYFNMRDSSDISRSCYNDLPSNVYVCSGPDCGLGNDNAVKQAETLFQEICPNEDFCPPPPNPEDIILDGDSLQPEASESSAIPEANSETFKESTNLGNLEESSE
With B2, the binding result in assay [2] was “binds”.
